This test deals with T1, HsRsg1 (human Rsg1) (human) (UniProt Q9BU20).
T1 sequence: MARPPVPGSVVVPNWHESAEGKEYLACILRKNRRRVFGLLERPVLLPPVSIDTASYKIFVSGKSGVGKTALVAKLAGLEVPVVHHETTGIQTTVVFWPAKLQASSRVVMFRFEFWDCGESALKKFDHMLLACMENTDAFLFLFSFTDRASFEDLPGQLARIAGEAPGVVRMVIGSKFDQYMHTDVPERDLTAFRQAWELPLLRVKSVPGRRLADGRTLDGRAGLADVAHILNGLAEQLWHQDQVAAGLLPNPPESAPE
Kind of test: co-purification of co-expressed proteins; CiBAR1 (His6-SUMO) and Rsg1 (GST) coexpressed in E. coli; held on glutathione agarose by Rsg1, His-Sumo cleaved off CiBAR1, washed, eluted with PreScission; Coomassie-stained SDS-PAGE; both purified.

Protein sequences, listed by entry. Tags and fused reporters are not part of them. Lines headed by an entry give the natural chain unless they say otherwise; changes in a name come on top.
UniProt A1XBS5: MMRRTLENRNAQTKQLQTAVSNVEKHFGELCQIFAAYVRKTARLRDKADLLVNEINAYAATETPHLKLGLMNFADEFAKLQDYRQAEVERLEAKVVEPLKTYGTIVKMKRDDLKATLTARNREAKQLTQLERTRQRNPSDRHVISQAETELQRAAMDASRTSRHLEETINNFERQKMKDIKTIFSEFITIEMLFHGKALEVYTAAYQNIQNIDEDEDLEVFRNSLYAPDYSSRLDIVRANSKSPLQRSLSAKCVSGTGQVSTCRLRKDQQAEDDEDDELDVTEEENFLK

In article PMC12383261, “Mechanistic adaptation of the metazoan RabGEFs Mon1-Ccz1 and Fuzzy-Inturned” (Science Advances, 2025) one finds binding data, which are given here for one substance.

These are yes or no findings as the source states them, for the method shown. Binding seen in cells or lysates may run through a third protein. Binding can be weak; no strength is given.

Take “HsCiBAR1 (human CiBAR1/FAM92A1) (from UniProt A1XBS5)”: the binding entry is “binds”.
